PubChem BioAssay AID1259425 | University of Nebraska Medical Center, 2018

Test: 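Find knockdowns that reproduce the gene expression pattern seen when KSR1 is lost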 (primary screen)
Cell system: HCT116 human colon cancer cells
Reagent: siRNA pool against human genes, 50 nM siRNA
Detection: 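mRNA of six signature genes measured together by branched-DNA assay after 50 nM siRNA pool, blank removed, divided by geometric mean of two housekeeping genes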
Direction: BNIP3L mRNA: higher = more BNIP3L transcript after knockdown; NDRG1 mRNA: higher = more NDRG1 transcript after knockdown
This is one part, drawn at random, of about 14,000 reagents. Not all columns of the deposit are shown. Not stated in the record: the time to read-out.

What is on record for KRCC1?
BNIP3L mRNA, set 1: 0.215; NDRG1 mRNA, set 1: 0.149

What is on record for ZMYND8?
BNIP3L mRNA, set 1: 0.32; NDRG1 mRNA, set 1: 0.183

For POLK, what does the deposit list?
BNIP3L mRNA, set 1: 0.102; NDRG1 mRNA, set 1: 0.57

What did the screen give for ZMIZ1?
BNIP3L mRNA, set 1: 0.104; NDRG1 mRNA, set 1: 0.28

How did the screen score SMARCD2?
BNIP3L mRNA, set 1: 0.0871; NDRG1 mRNA, set 1: 0.133

What is on record for PRR16?
BNIP3L mRNA, set 1: 0.118; NDRG1 mRNA, set 1: 0.448

With RNF10, what does the deposit list?
BNIP3L mRNA, set 1: 0.176; NDRG1 mRNA, set 1: 0.237

How did the screen score PLPPR2?
BNIP3L mRNA, set 1: 0.0889; NDRG1 mRNA, set 1: 0.472

With NCAPG, what was measured?
BNIP3L mRNA, set 1: 0.11; NDRG1 mRNA, set 1: 0.124

What is on record for TMEM143?
BNIP3L mRNA, set 1: 0.143; NDRG1 mRNA, set 1: 0.526

What did the screen give for NUAK2?
BNIP3L mRNA, set 1: 0.178; NDRG1 mRNA, set 1: 0.767

For RHBDD3, what does the deposit list?
BNIP3L mRNA, set 1: 0.214; NDRG1 mRNA, set 1: 0.921

What did the screen give for USP3?
BNIP3L mRNA, set 1: 0.0569; NDRG1 mRNA, set 1: 0.26

With CFHR1, what does the deposit list?
BNIP3L mRNA, set 1: 0.125; NDRG1 mRNA, set 1: 0.436

How did the screen score SACK1E?
BNIP3L mRNA, set 1: 0.113; NDRG1 mRNA, set 1: 0.255

How did the screen score ZMIZ2?
BNIP3L mRNA, set 1: 0.174; NDRG1 mRNA, set 1: 0.527

What did the screen give for PANK1?
BNIP3L mRNA, set 1: 0.0471; NDRG1 mRNA, set 1: 0.0896

For TM7SF2, what does the deposit list?
BNIP3L mRNA, set 1: 0.0746; NDRG1 mRNA, set 1: 0.11

With CDY2A, what does the deposit list?
BNIP3L mRNA, set 1: 0.0784; NDRG1 mRNA, set 1: 0.209

What is on record for SAP30BP?
BNIP3L mRNA, set 1: 0.122; NDRG1 mRNA, set 1: 0.152

With PCYOX1, how do the results read?
BNIP3L mRNA, set 1: 0.145; NDRG1 mRNA, set 1: 0.129

For SLC25A44, how do the results read?
BNIP3L mRNA, set 1: 0.136; NDRG1 mRNA, set 1: 0.209

How did the screen score CPS1?
BNIP3L mRNA, set 1: 0.109; NDRG1 mRNA, set 1: 0.152

What did the screen give for WRAP53?
BNIP3L mRNA, set 1: 0.116; NDRG1 mRNA, set 1: 0.503

With SERPINB1, what does the deposit list?
BNIP3L mRNA, set 1: 0.082; NDRG1 mRNA, set 1: 0.288

What did the screen give for C22orf46P?
BNIP3L mRNA, set 1: 0.163; NDRG1 mRNA, set 1: 0.508

With TIMM50, what was measured?
BNIP3L mRNA, set 1: 0.101; NDRG1 mRNA, set 1: 0.111

With NSL1, how do the results read?
BNIP3L mRNA, set 1: 0.184; NDRG1 mRNA, set 1: 0.193

With GALNT9, what does the deposit list?
BNIP3L mRNA, set 1: 0.0737; NDRG1 mRNA, set 1: 0.17

With ZFYVE16, what does the deposit list?
BNIP3L mRNA, set 1: 0.0909; NDRG1 mRNA, set 1: 0.296

How did the screen score PGRMC1?
BNIP3L mRNA, set 1: 0.0509; NDRG1 mRNA, set 1: 0.225

With BPNT1, how do the results read?
BNIP3L mRNA, set 1: 0.0739; NDRG1 mRNA, set 1: 0.248

With PDIA6, what does the deposit list?
BNIP3L mRNA, set 1: 0.143; NDRG1 mRNA, set 1: 0.173

With CD40LG, what does the deposit list?
BNIP3L mRNA, set 1: 0.0509; NDRG1 mRNA, set 1: 0.107

Which result is listed for SULT1A2?
BNIP3L mRNA, set 1: 0.159; NDRG1 mRNA, set 1: 0.227

What did the screen give for TPST1?
BNIP3L mRNA, set 1: 0.0748; NDRG1 mRNA, set 1: 0.168

Copied from the entries so far, 4 entries:
CPS1: BNIP3L mRNA, set 1 = 0.109; NDRG1 mRNA, set 1 = 0.152
WRAP53: BNIP3L mRNA, set 1 = 0.116; NDRG1 mRNA, set 1 = 0.503
SERPINB1: BNIP3L mRNA, set 1 = 0.082; NDRG1 mRNA, set 1 = 0.288
C22orf46P: BNIP3L mRNA, set 1 = 0.163; NDRG1 mRNA, set 1 = 0.508
